PubChem BioAssay AID652243 – Drosophila RNAi Screening Center | 2013
In all, the deposit lists about 24,000 reagents; below is a random part of those that have a named target and a result. In the full data, 246 (1%) are marked active. 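Plates not normalised; calls are printed but the firefly/Renilla ratio behind them is not deposited; fold cut for lowering reported inconsistently.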 Raw values are not corrected between plates. A plus sign joins genes that one reagent is predicted to hit. Reagent sequences are not shown. Not given: the amount of reagent.

Assay: 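Fly genes required for human androgen receptor driven transcription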 (primary screen)
System: Drosophila S2R+ cells
Reagent: long dsRNA against Drosophila genes
Time to read-out: 72 h (48 h, then 24 h hormone)
Treatment: synthetic androgen R1881 at 10 nM for 24 h
Measured: 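Firefly light from an androgen-responsive reporter and Renilla control light per well, raw and unnormalised, for each of two replicates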
Direction: firefly reporter light: higher = more light from androgen-responsive reporter; Renilla control light: higher = more constitutive control signal (cell number, transfection)
Call rule: 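Hit when the log firefly-to-Renilla ratio dropped or increased by a fixed fold versus the mean of GFP or LacZ controls across duplicate plates; lowering cut given as 1.5 and as 3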
Calls: active = hit: reporter lowered or raised; inactive = no hit

no.	gene knocked down	PubChem SID	firefly reporter light, replicate 1	firefly reporter light, replicate 2	Renilla control light, replicate 1	Renilla control light, replicate 2	Outcome
1	Cyp28d1 (Cytochrome P450 28d1)	SID104183090	7.94e5	8.13e5	3.01e6	2.98e6	inactive
2	Cyp28d1 (Cytochrome P450 28d1)	SID104201112	7.81e5	7.93e5	2.98e6	2.73e6	inactive
3	Cyp28d1 (Cytochrome P450 28d1)	SID104206836	4.29e5	6.85e5	1.40e6	1.92e6	inactive
4	w (white)	SID104198642	2.66e5	2.31e5	2.69e6	2.57e6	inactive
5	w (white)	SID104208609	8.12e5	7.75e5	1.16e6	1.06e6	inactive
6	Pxt (Peroxinectin-like)	SID104196832	1.51e5	1.80e5	1.15e6	1.36e6	inactive
7	flw (flapwing)	SID104197784	4.19e5	3.81e5	2.92e6	2.73e6	inactive
8	flw (flapwing)	SID104198566	8.57e5	6.92e5	4.90e6	4.39e6	inactive
9	flw (flapwing)	SID104203707	9.00e5	4.45e5	8.11e5	6.15e5	active
10	lig (lingerer)	SID104187038	2.27e5	1.80e5	1.05e6	1.04e6	active
11	lig (lingerer)	SID104187039	1.73e5	1.17e5	6.65e5	4.15e5	inactive
12	lig (lingerer)	SID104202800	3.39e5	3.79e5	6.25e5	6.94e5	inactive
13	CG14132	SID104189928	2.12e5	2.21e5	2.05e6	2.98e6	inactive
14	CG42633	SID104195853	1.50e5	1.33e5	2.87e6	1.58e6	inactive
15	CG46298	SID104186014	1.02e5	57222	1.35e6	8.03e5	inactive
16	CG46298	SID104202926	1.13e6	8.61e5	9.21e5	9.20e5	inactive
17	Rbpn-5 (Rabaptin-5)	SID104184232	1.07e6	9.92e5	2.65e6	2.67e6	inactive
18	Rbpn-5 (Rabaptin-5)	SID104204686	3.56e5	2.55e5	6.69e5	7.48e5	inactive
19	CG33460	SID104185362	3.36e5	1.69e5	4.92e5	4.87e5	inactive
20	CG17919	SID104192363	19985	73736	2.93e5	2.96e5	inactive
21	CG17919	SID104206404	4.39e5	2.37e5	2.19e6	1.20e6	inactive
22	Cog3 (Component of oligomeric golgi complex 3)	SID104180377	5.33e5	6.73e5	1.20e6	1.29e6	inactive
23	CG43373	SID104189661	2.01e5	1.66e5	1.35e6	1.32e6	inactive
24	CG43373	SID104189677	2.13e5	1.70e5	1.90e6	1.71e6	inactive
25	CG43373	SID104205375	7.35e5	5.10e5	1.14e6	4.20e5	inactive
26	CG6106	SID104199763	5.02e5	8.06e5	4.16e6	5.69e6	inactive
27	CG6106	SID104207820	4.71e5	4.95e5	1.03e6	1.25e6	inactive
28	Aduk (Another Drosophila Unc-51-like kinase)	SID104196243	1.87e5	1.77e5	2.55e6	2.15e6	inactive
29	Aduk (Another Drosophila Unc-51-like kinase)	SID104208382	6.34e5	4.29e5	1.45e6	1.55e6	inactive
30	Aduk (Another Drosophila Unc-51-like kinase)	SID104214649					inactive
31	Asciz (ASCIZ zinc finger protein)	SID104188213	60867	91190	6.47e5	6.39e5	inactive
32	CG6236	SID104195791	1.28e5	1.06e5	6.97e5	5.23e5	inactive
33	CG10939	SID104185811	9.94e5	9.09e5	2.31e6	2.22e6	inactive
34	CG10939	SID104201405	4.17e5	4.42e5	1.97e6	1.99e6	inactive
35	Hmr (Hybrid male rescue)	SID104197532	4.69e5	6.52e5	3.69e6	3.87e6	inactive
36	CG15225	SID104202626	6.68e5	5.76e5	1.01e6	9.65e5	inactive
37	CG15225	SID104207914	5.32e5	4.93e5	1.30e6	1.30e6	inactive
38	Tsp29Fb (Tetraspanin 29Fb)	SID104183025	1.97e5	1.14e5	1.67e6	1.45e6	inactive
39	Tsp29Fb (Tetraspanin 29Fb)	SID104204840	2.86e5	2.57e5	5.07e5	4.87e5	inactive
40	glu (gluon)	SID104183331	6.35e5	7.86e5	1.66e6	1.51e6	inactive
41	glu (gluon)	SID104204695	3.33e5	2.53e5	8.77e5	7.63e5	inactive
42	Ing3 (Inhibitor of growth family, member 3)	SID104199794	5.36e5	3.33e5	2.90e6	2.38e6	inactive
43	Ing3 (Inhibitor of growth family, member 3)	SID104206503	7.49e5	7.45e5	2.63e6	1.54e6	inactive
44	CG11590	SID104199203	4.37e5	3.69e5	3.16e6	3.90e6	inactive
45	CG11590	SID104206949	2.81e5	5.75e5	1.20e6	2.21e6	active
46	CG13868	SID104186219	9.03e5	1.12e6	1.40e6	1.59e6	inactive
47	bard	SID104194588	46278	38029	7.15e5	5.04e5	inactive
48	Dred (Dctn1-related)	SID104190849	2.99e5	2.16e5	2.69e6	2.36e6	inactive
49	Dred (Dctn1-related)	SID104190851	3.29e5	4.41e5	2.50e6	3.54e6	inactive
50	Eig71Eb (Ecdysone-induced gene 71Eb)	SID104190941	3.22e5	2.23e5	3.27e6	2.02e6	inactive
51	rols (rolling pebbles)	SID104189665	7.19e5	6.66e5	2.22e6	2.23e6	inactive
52	rols (rolling pebbles)	SID104190046	1.45e5	1.58e5	1.62e6	1.54e6	inactive
53	rols (rolling pebbles)	SID104190328	1.32e5	1.47e5	2.00e6	2.10e6	inactive
54	CG3701 (retired record)	SID104184200	2.15e5	2.61e5	8.81e5	1.25e6	inactive
55	CG3701 (retired record)	SID104184201	84548	90151	6.91e5	1.22e6	inactive
56	CG17768 + LSm-4	SID104182637	2.13e5	2.04e5	1.62e6	1.62e6	inactive
57	CtBP (C-terminal Binding Protein)	SID104196409	99729	51816	4.02e5	3.71e5	inactive
58	CtBP (C-terminal Binding Protein)	SID104202857	3.43e5	3.34e5	5.67e5	5.06e5	inactive

Records listed so far with an active call:
gene knocked down	PubChem SID	firefly reporter light, replicate 1	firefly reporter light, replicate 2	Renilla control light, replicate 1	Renilla control light, replicate 2	Outcome
flw (flapwing)	SID104203707	9.00e5	4.45e5	8.11e5	6.15e5	active
lig (lingerer)	SID104187038	2.27e5	1.80e5	1.05e6	1.04e6	active
CG11590	SID104206949	2.81e5	5.75e5	1.20e6	2.21e6	active
